Assay results published in article PMC7805345.
Results are given in words; binding and its absence hold for the method and conditions named. Where a sequence is shown, tags or fusion partners need not be part of it.

Legend:
[1] = target: T1, M. smegmatis GlgE H349Y variant (M. smegmatis) (UniProt Q9RP48); assay: other fluorescence titration; intrinsic tryptophan fluorescence of 1 uM GlgE (methods: H349Y) with GarA up to 100 uM; 100 mM Bis-Tris propane, pH 7.0, 50 mM NaCl; both purified
T1 sequence: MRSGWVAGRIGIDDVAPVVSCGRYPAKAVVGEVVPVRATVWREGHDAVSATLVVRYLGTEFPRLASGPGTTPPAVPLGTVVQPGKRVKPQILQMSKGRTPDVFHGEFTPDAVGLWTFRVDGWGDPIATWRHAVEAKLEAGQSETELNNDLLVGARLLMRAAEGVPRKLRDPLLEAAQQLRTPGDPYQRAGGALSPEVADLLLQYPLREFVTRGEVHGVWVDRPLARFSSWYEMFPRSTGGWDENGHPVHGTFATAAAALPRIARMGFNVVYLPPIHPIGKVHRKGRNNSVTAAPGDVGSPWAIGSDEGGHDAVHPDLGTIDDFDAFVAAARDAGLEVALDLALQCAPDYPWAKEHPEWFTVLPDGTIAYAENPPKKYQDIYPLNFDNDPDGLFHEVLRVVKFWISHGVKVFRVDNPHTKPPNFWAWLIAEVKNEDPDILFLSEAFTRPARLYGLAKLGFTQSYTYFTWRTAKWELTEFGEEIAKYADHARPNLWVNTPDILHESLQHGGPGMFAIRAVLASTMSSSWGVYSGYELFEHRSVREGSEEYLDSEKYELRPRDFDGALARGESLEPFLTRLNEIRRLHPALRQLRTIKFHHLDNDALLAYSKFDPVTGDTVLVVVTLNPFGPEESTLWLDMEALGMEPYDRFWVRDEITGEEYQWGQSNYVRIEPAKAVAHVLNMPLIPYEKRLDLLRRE

[2] = target: T2, M. smegmatis GlgE (wild-type) labelled with dansyl chloride (M. smegmatis) (UniProt Q9RP48); assay: fluorescence polarisation; fluorescence anisotropy; GarA titrated into 1 uM dansyl-labelled GlgE up to 630 uM at 25 and 42 °C; 100 mM Bis-Tris propane, pH 7.0, 50 mM NaCl; excitation 335 nm, emission 515 nm; both purified
T2 sequence (chain, dansyl groups (labelled with dansyl chloride; sites not stated)): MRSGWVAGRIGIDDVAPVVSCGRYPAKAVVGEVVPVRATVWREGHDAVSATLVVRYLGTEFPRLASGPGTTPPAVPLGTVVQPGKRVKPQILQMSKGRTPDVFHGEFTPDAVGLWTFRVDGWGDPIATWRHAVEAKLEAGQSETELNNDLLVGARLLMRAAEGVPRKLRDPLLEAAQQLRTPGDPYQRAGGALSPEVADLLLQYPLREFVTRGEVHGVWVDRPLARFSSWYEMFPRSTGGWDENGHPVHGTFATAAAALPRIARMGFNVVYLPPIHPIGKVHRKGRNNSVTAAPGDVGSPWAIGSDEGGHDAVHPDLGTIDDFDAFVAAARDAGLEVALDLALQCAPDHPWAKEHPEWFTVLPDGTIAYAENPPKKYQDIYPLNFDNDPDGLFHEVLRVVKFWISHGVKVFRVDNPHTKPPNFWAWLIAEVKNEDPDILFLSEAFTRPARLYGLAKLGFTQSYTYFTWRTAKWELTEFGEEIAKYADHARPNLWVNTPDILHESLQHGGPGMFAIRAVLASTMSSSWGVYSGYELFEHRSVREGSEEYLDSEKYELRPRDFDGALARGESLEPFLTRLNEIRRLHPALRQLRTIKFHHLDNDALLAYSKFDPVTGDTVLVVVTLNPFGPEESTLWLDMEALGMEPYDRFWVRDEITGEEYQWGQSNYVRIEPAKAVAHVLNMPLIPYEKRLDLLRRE

B1: Mycobacterium smegmatis GarA (protein, UniProt A0QYG2 1-158)
chain: MTDKDSNLGADQSEDVTVETTSVFRADFLNELDAPAAAGTEGAVSGVEGLPSGSALLVVKRGPNAGSRFLLDQPTTSAGRHPDSDIFLDDVTVSRRHAEFRLEGGEFQVVDVGSLNGTYVNREPVDSAVLANGDEVQIGKFRLVFLTGPKSDDSGSNA
binding [1]: no binding (tested: 100 μM)
binding [2]: no binding (tested: 630 μM)
